# Measurements published in US20240408085A1, “COMPOUND FOR DEGRADATION OF BCL-2 FAMILY PROTEINS AND MEDICAL APPLICATION THEREOF” (XIZANG HAISCO PHARMACEUTICAL CO., LTD., priority 2021, published 2024).
# At least one compound was matched to its structure with a doubt left.
# System: MOLT-4 xenograft tumors
# Assay: Growth inhibition experiment in MOLT-4 xenograft tumor models in mice
# Assay type: in vivo
# Conditions: 5, 15 and 50 mpk, ip, qw, 4 weeks
# Protocol: MOLT-4 cells are acute lymphoblastic leukemia cell lines in humans. The cells were purchased from ATCC and cultured in RPMI-1640+10% FBS+1% o penicillin-streptomycin solution in a 37° C., 5% CO2 incubator. When the cells were in the exponential growth phase, the cells were harvested and counted. An equal volume of matrigel was added. Female SCID Beige mice (4-6 weeks old, 14-16 g, Beijing Vital River Laboratory Animal Technology Co., Ltd.) were inoculated subcutaneously in the right flank with the cells (200 μL, containing 1×10^7 MOLT-4 cells and 50% matrigel). When the tumor volume reached 150-200 mm^3, the mice were randomly grouped for administration according to the tumor volume and body weight of the mice. Three administration dosages were provided: 5 mpk, 15 mpk and 50 mpk. The compounds were injected intraperitoneally (ip) weekly (qw). The mice in all the experimental groups (10 mice in each group) were continuously administered for 4 weeks.
# After inoculation, the body weights of the mice were measured three times a week and the long (a) and short (b) diameters of the tumors were measured. The tumor volume was calculated according to the formula: V=ab^2/2. At day 28 after the administration, the experiment was terminated.
structure (smiles),measurement,value
"Cc1ncsc1-c1ccc([C@H](C)NC(=O)[C@@H]2C[C@@H](O)CN2C(=O)[C@@H](NC(=O)CCCCCC(=O)N2CCN(CC[C@H](CSc3ccccc3)Nc3ccc(S(=O)(=O)NC(=O)c4ccc(N5CCN(CC6=C(c7ccc(Cl)cc7)CCCCC6)CC5)cc4)cc3S(=O)(=O)C(F)(F)F)CC2)C(C)(C)C)cc1 [Compound 6, (2S,4R)-1-((S)-2-(7-(4-((R)-3-((4-(N-(4-(4-((2-(4-chlorophenyl)cyclohept-1-en-1-yl)methyl)piperazin-1-yl)benzoyl)sulfamoyl)-2-((trifluoromethyl)sulfonyl)phenyl)amino)-4-(phenylthio)butyl)piperazin-1-yl)-7-oxoheptanamido)-3,3-dimethylbutanoyl)-4-hydroxy-N—((S)-1-(4-(4-methylthiazol-5-yl)phenyl)ethyl)pyrrolidine-2-carboxamide]",tumor-suppressing efficacy on MOLT-4 xenograft tumors relative to the vehicle control group,significant tumor-suppressing efficacy
